Reference: article PMC4226571, “The E6AP Binding Pocket of the HPV16 E6 Oncoprotein Provides a Docking Site for a Small Inhibitory Peptide Unrelated to E6AP, Indicating Druggability of E6” (PLoS ONE, 2014)
No constants are given. Whether binding was seen depends on the method and setting. A result given as binding can be weak or reduced; the word gives no strength. Tags and fused reporters may be left off the sequences shown.

Molecular target: T1, pep11** fused to the GAL4 DNA binding domain
T1 sequence: KEKEEYNSNCSCIACIGLI
Assay: two-hybrid; mammalian two-hybrid (CheckMate) in HeLa cells; peptides fused to GAL4-BD (pBIND), E6 proteins fused to VP16-AD (pACT); luciferase reporter pG5luc, normalized for pCMV-Gal

Q: Which binding does the source give for “16E6R55A fused to the VP16 transcriptional activation domain (human papillomavirus type 16)” here?
A: binds
